Our source for the binding values is patent publication US20120093810A1.

These are yes or no findings as the source states them, for the method shown. Some entries that bind do so weakly or less than the wild type.

Experiment [1] deals with GST-fused HCMV-AD1 (AD1 region of HCMV glycoprotein gB) (human cytomegalovirus, AD169 strain) (UniProt F5HB53). Kind of experiment: ELISA on solid-phased AD1, CHO supernatant antibody. (ELISA stands for enzyme-linked immunosorbent assay.)
Experiment [2] has the same target. As to the kind of experiment: ELISA on solid-phased AD1 (referred to in Example 8).
The target is the same in experiment [3]. As to the kind of experiment: ELISA on solid-phased AD1 (referred to in Example 10).
Experiment [4] has the same target. Kind of experiment: ELISA on solid-phased AD1; member taken from the consensus in paragraph 333.

B1: EV2038 CDR-H3 variant V132K (antibody, V domains shown)
VH: QVQLQQWGAGLLKPSETLSLTCAVYGGSFSGYYWGWIRQPPGKGLEWIGEINHSGSANSNPSLKSRVTMSVDTSKNQFSLKVSSVTAADTAVYFCARVTRDLEWIPGDYYMDKWGKGTTVTVSS
VL: QSVLTQPPSASGTPGQRVSISCSGSLSNIGTNYVYWYQQLPGTAPKLLIFKNNQRPSGVPDRFSGSKSGTSASLAISGLRSEDEADYYCAAWDDSLNGYVFGTGTKVTVLG
Turning to B1, the binding entry in experiment [1], in experiment [2] and in experiment [3] was “binds” each time.

B2: EV2038 CDR-H3 variant I124V (antibody, V domains shown)
VH: QVQLQQWGAGLLKPSETLSLTCAVYGGSFSGYYWGWIRQPPGKGLEWIGEINHSGSANSNPSLKSRVTMSVDTSKNQFSLKVSSVTAADTAVYFCARVTRDLEWVPGDYYMDVWGKGTTVTVSS
VL: QSVLTQPPSASGTPGQRVSISCSGSLSNIGTNYVYWYQQLPGTAPKLLIFKNNQRPSGVPDRFSGSKSGTSASLAISGLRSEDEADYYCAAWDDSLNGYVFGTGTKVTVLG
With B2, the binding result in experiment [2] and in experiment [4] was “binds” in each case.
